Measurements reported in PubChem BioAssay AID1159578 (Peter MacCallum Cancer Centre, 2015).
Aim: 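Genome-wide hunt for genes controlling movement of lymphatic endothelial cells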 (primary screen). Cell system: human lymphatic endothelial cells. Knock-down reagent: siRNA pool against human genes, 40 nM. Time to read-out: 48 h after transfection. Measured: 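Cells stained with dye and imaged after a scratch; covered wound area and nuclei counted, duplicates averaged, migration set against mock wells and turned into a robust z-score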. Direction: migration robust z-score: higher = faster migration into the scratch; migration relative to mock: higher = more scratch area covered than mock; nuclei per well: higher = more cells in the well. Active means: 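Pools averaging fewer than 3300 nuclei are never called; remaining pools count as changed when migration robust z lies outside -2 to 2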. Meaning of the calls: active = migration changed; inactive = no migration change, or too few cells.
Shown is a random part of about 18,000 deposited reagents. Over the whole deposit, about 1,030 (5.7%) got an active call. 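Inactive calls also include pools with fewer than 3300 nuclei, whose migration was not assessed.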 Raw values vary from plate to plate and are shown uncorrected. Entries without a mark were called inactive. Reagent sequences are not shown.

gene symbol	migration robust z-score	migration class with cell-count check	migration relative to mock	nuclei per well, duplicate mean
TNFSF10	1.71	migration z between -2 and 2; enough cells	1.14	5860
ZKSCAN5	0.42	migration z between -2 and 2; enough cells	0.88	6380
SHPRH	0.39	migration z between -2 and 2; enough cells	0.88	6115
FOCAD	-0.78	migration z between -2 and 2; enough cells	0.68	5366
DRD4	0.52	migration z between -2 and 2; enough cells	0.9	5976
NFIB	-0.39	migration z between -2 and 2; enough cells	0.73	4588
CTU2	0.33	migration z between -2 and 2; enough cells	0.97	6481
MND1	0.76	migration z between -2 and 2; enough cells	1.08	6433
SMC1A	-0.57	migration z between -2 and 2; enough cells	0.7	5548
SCN2B	-0.73	migration z between -2 and 2; enough cells	0.66	4158
SBK1	-0.88	migration z between -2 and 2; enough cells	0.64	3652
PGAM2	0.16	migration z between -2 and 2; enough cells	0.84	5730
SAA2	-0.42	migration z between -2 and 2; enough cells	0.78	5490
TMIGD2	-2.75 (active)	migration z below -2; enough cells	0.17	5088
CCT6A	-0.13	migration z between -2 and 2; enough cells	0.78	5524
CSRNP1	-0.18	migration z between -2 and 2; enough cells	0.84	5526
MYO18B	1.4	migration z between -2 and 2; enough cells	1.07	5490
ZFYVE27	0.21	migration z between -2 and 2; enough cells	0.94	5628
KRT34	0.33	migration z between -2 and 2; enough cells	0.97	6404
MRPS18A	0.18	migration z between -2 and 2; enough cells	0.93	4338
LIPC	-0.02	migration z between -2 and 2; enough cells	0.8	5028
S100A9	0.24	migration z between -2 and 2; enough cells	0.94	7002
MIEF2	1.48	migration z between -2 and 2; enough cells	1.27	5046
MAP3K2	0.31	migration z between -2 and 2; enough cells	0.86	6476
TNPO2	-0.57	migration z between -2 and 2; enough cells	0.7	6040
PKIG	0.65	under 3300 nuclei; migration not judged	0.93	844
KCNJ14	-0.24	migration z between -2 and 2; enough cells	0.76	6718
TMED9	1.04	migration z between -2 and 2; enough cells	1.15	5033
CHRND	-0.1	migration z between -2 and 2; enough cells	0.78	5650
TTC23L	-1.53	migration z between -2 and 2; enough cells	0.5	5250
ARHGAP36	-1.02	migration z between -2 and 2; enough cells	0.62	5634
GLYCTK	0.05	migration z between -2 and 2; enough cells	0.82	5226
SPIB	1.14	migration z between -2 and 2; enough cells	1.02	5649
ZNF639	-1.61	migration z between -2 and 2; enough cells	0.47	5994
CASP3	0.96	migration z between -2 and 2; enough cells	0.99	5798
KBTBD2	0.08	migration z between -2 and 2; enough cells	0.9	6308
INPP5F	-0.26	migration z between -2 and 2; enough cells	0.76	5063
PCYOX1L	-0.06	migration z between -2 and 2; enough cells	0.87	5208
JAKMIP2	-1.33	migration z between -2 and 2; enough cells	0.54	6088

Called active (from the list above):
gene symbol	migration robust z-score	migration class with cell-count check	migration relative to mock	nuclei per well, duplicate mean
TMIGD2	-2.75 (active)	migration z below -2; enough cells	0.17	5088
